# The list shows a part of the results, in another mix than the full data. For some assays here: At the low end of the ranking, values are background and their order means little.
# Chains of the proteins cited; added tags and fusions are not shown. Lines headed by an entry give the natural chain unless they say otherwise; changes in a name come on top.
# UniProt Q01892: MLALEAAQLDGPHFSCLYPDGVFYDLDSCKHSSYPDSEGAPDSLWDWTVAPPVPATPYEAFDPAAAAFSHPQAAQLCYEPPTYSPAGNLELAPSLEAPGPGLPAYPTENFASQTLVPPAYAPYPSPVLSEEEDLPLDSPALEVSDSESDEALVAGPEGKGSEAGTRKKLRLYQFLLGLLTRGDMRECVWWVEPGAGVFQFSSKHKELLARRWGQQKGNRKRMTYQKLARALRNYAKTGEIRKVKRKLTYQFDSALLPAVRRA
# UniProt Q99607: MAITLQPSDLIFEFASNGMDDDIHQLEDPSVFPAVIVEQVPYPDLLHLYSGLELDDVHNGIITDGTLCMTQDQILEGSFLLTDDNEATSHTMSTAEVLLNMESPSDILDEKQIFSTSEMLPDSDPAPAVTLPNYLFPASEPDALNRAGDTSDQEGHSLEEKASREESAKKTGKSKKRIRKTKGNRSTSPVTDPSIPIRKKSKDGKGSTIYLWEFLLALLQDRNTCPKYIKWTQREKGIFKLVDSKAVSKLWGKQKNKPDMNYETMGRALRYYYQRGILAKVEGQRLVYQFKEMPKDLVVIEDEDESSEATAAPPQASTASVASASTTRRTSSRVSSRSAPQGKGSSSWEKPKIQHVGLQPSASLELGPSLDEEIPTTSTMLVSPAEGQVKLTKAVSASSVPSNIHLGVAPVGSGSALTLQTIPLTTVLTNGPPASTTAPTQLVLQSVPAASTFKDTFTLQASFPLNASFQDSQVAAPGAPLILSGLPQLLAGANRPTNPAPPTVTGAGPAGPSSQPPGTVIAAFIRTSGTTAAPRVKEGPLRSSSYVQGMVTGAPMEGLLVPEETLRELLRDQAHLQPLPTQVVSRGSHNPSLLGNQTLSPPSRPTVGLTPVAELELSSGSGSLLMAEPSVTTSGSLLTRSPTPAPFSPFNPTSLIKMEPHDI
# Molecular target: SPIB (UniProt Q01892)
# Assay: DAPPL (digital affinity profiling via proximity ligation, sequencing)
# Conditions: 10 mM Tris-HCl pH 7.5, 50 mM NaCl, 1 mM DTT, 4% glycerol, room temperature, 30 min; GST-TFs on glutathione beads, 16-mer random dsDNA library, 0.1% …; high values mean tight binding; double strand, one strand shown; scale: fold enrichment (6-mer frequency, TF over GST control)
row,Sequence,binding signal
1,AATGGG,1.22
2,TTGCAT,1.38
3,ATAGCT,1.09
4,CGCTAG,0.994
5,ATTGAT,1.16
6,CTCGTA,1.38
7,TTGCGC,0.996
8,TACAAG,0.974
9,GTATTA,1.07
10,ACCCGC,1.27
11,ATACTG,0.982
12,TAGTAC,1.06
13,TTATGA,1.14
14,ATTCCG,1.78
15,TCCATC,1.16
16,TCCTCC,1.6
17,GCTCAA,1.1
18,TTCAAA,1.3
19,AATAGA,1.05
20,GATCCT,1.33
21,CTCTCA,1.44

# Molecular target: ELF4 (UniProt Q99607)
# Assay: as above
# Conditions: 10 mM Tris-HCl pH 7.5, 50 mM NaCl, 1 mM DTT, 4% glycerol, room temperature, 30 min; GST-TFs on glutathione beads, 16-mer random dsDNA library, 0.1% …; high values mean tight binding; double strand, one strand shown; scale: fold enrichment (6-mer frequency, TF over GST control)
row,Sequence,binding signal
1,AATGGG,1.16
2,TTGCAT,1.4
3,ATAGCT,1.07
4,CGCTAG,1.11
5,ATTGAT,1.32
6,CTCGTA,1.35
7,TTGCGC,1.06
8,TACAAG,1.1
9,GTATTA,1.08
10,ACCCGC,1.35
11,ATACTG,1.16
12,TAGTAC,1.15
13,TTATGA,1.05
14,ATTCCG,1.61
15,TCCATC,1.13
16,TCCTCC,1.62
17,GCTCAA,1.16
18,TTCAAA,1.26
19,AATAGA,1.07
20,GATCCT,1.35
21,CTCTCA,1.42

# Molecular target: T1, ETV2 (UniProt O00321)
# T1 sequence: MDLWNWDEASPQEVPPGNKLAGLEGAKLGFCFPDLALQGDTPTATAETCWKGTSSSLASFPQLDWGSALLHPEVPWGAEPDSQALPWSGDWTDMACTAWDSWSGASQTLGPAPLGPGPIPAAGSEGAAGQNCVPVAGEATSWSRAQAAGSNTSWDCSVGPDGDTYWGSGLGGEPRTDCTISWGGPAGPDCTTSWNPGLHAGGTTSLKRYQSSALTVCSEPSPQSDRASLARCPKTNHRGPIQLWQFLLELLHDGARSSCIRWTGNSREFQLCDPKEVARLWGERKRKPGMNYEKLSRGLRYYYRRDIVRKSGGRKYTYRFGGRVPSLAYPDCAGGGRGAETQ
# Assay: as above
# Conditions: 10 mM Tris-HCl pH 7.5, 50 mM NaCl, 1 mM DTT, 4% glycerol, room temperature, 30 min; GST-TFs on glutathione beads, 16-mer random dsDNA library, 0.1% …; high values mean tight binding; double strand, one strand shown; scale: fold enrichment (6-mer frequency, TF over GST control)
row,Sequence,binding signal
1,ATGTCA,0.962
2,TGGTGT,1.45
3,GTAAAC,1.15
4,TTATTG,1.33
5,GAATCT,1.2
6,CTTACG,1.1
7,ATAACT,1.39
8,TATTCC,1.68
9,GCCAAT,0.98
10,GCACTT,1.66
11,ACATGG,0.976
12,CCTCGT,0.985
13,GATTAT,1.07
14,TTCCTT,1.79
15,AAGAAT,1.12
16,ATGACT,1.41
17,TTGATG,1.53

# Some of the entries so far, with bars between the fields:
row | Sequence | binding signal
10 | GCACTT | 1.66
11 | ACATGG | 0.976
12 | CCTCGT | 0.985
13 | GATTAT | 1.07
14 | TTCCTT | 1.79
15 | AAGAAT | 1.12
16 | ATGACT | 1.41
17 | TTGATG | 1.53
